# From PubChem BioAssay AID504375 (National Center for Advancing Translational Sciences (NCATS), 2011)
# The chains behind the UniProt entries cited, without tags or fusion partners.
# UniProt Q01196, whole entry, looked up: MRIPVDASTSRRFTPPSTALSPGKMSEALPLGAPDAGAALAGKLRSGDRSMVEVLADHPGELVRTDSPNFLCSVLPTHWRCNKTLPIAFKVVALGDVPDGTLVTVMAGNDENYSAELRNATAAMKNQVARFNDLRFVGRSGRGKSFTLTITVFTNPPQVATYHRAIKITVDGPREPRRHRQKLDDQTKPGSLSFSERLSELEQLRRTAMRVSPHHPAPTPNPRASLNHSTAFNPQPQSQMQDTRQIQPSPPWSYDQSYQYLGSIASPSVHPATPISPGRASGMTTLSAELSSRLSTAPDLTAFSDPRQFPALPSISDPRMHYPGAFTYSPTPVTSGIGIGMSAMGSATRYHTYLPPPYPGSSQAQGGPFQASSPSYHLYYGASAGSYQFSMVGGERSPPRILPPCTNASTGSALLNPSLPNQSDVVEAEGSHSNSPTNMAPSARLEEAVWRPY
# UniProt Q13951, whole entry, looked up: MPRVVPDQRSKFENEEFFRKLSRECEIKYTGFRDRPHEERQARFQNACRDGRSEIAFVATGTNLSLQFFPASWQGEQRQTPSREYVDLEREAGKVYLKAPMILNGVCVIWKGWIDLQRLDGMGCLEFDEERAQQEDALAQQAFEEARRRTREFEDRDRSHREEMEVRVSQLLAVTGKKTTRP
# The whole screen tested about 1,600 compounds, of which about 25 (2%) were called active. Not shown: some 7% with an inconclusive outcome. The call rests on the fitted dose curve; in most records, active means well fitted inhibition curve with a large enough effect; inconclusive means small, poorly fitted or top-dose-only effect, or effect the other way; inactive means no such curve, though single readings can be large or run the other way. The list shows a part of the results.
# Biological target: Runt-related transcription factor 1 (Homo sapiens) + Core-binding factor subunit beta (Homo sapiens) (UniProt Q01196+Q13951)
# Experiment: qHTS Assay for Compounds Blocking the Interaction Between CBF-beta and RUNX1 for the Treatment of Acute Myeloid Leukemia: Hit Validation with Orthogonal Assay
# Details: CBFbeta-RUNX1 binding orthogonal assay, biochemical; series mostly up to 41 µM; activity change, negative = inhibition: at the top concentration
# Text: NIH Chemical Genomics Center [NCGC]
# NIH Molecular Libraries Probe Production centers Network [MLPCN]
# Assay Submitter (PI): Paul Liu
# Core Binding Factor (CBF) abnormalities are associated with 20-25% of all acute myeloid leukemias (AML), of which 5-10% are further sub classified as acute myelomonocytic leukemia with eosinophilia, also known as M4Eo in the FAB classification scheme. This subtype of leukemia is usually associated with chromosome 16 inversion (p13:q22). Chromosome 16 inversion results in formation of the fusion oncogene CBFB-MYH11, which encodes the fusion protein CBF-beta-SMMHC.
# It has been hypothesized that the interference of CBF-beta and RUNX1 binding could have therapeutic implications for patients with CBF mediated leukemias. We developed a CBF-beta and RUNX1 binding assay in AlphaScreenTM format and optimized it for high throughput screening to search for inhibitors. The goal of this project is to screen MLPCN's compound collection (MLSMR) for identifying the inhibitors of the interaction between CBF-beta and RUNX1 proteins as research probes. If these probes work well in the animal models, the ultimate goal of this project is to development a new drug treatment for this disease.
# This assay can not be used to assess how apparent inhibitors interfere with protein binding, and whether inhibitors specifically bind to either protein. Disruption of this protein-protein interaction, through any mechanism, is the intended target activity.
# The present data set was run to confirm the activity of hits from the primary screen using an orthogonal assay technology for measuring protein-protein interaction disruption.
# A TR-FRET (time resolved fluorescence resonance energy transfer) assay was performed using the same assay buffer, protein concentrations and incubation times as described previously in the AlphaScreen assay, except that terbium (Tb+) labeled anti-his-antibody and XL665 linked streptavidin were used to capture the binding signal. The Tb+ labeled anti-his-antibody captures His(6)-CBF and XL665 linked streptavidin binds to biotin-RUNX1. The binding of RUNX1 to CBFbrings Tb+ and XL665 to proximity resulting in a TR-FRET signal. Briefly, in a white 384-well plate, 10 µl/well of mixture of biotin-RUNX1 and His(6)-CBFwere incubated with 10 µl/well buffer (positive control) or 10 µl/well compounds (negative control) for 20 min followed by an addition of 10 µl/well of Tb+ labeled anti-his(6)-antibody and XL665 linked streptavidin. After 90 min of incubation in the dark, the assay plate was measured in the Envision plate reader using TR-FRET detection mode. For the 1536-well plate format, 3 µl/well mixture of biotin-RUNX1 and His(6)-CBF (30 nM per protein) was incubated with 23 nl/well compound (dissolved in 100% DMSO) or the equivalent DMSO concentration (positive control) for 30 min followed by the addition of 1 µl/well of 0.44 ng Tb+ labeled anti-his(6)-antibody and 5 nM streptavodin-XL665. After 90 min of incubation, the assay plate was measured in the Envision plate reader.
# The TR-FRET assay for detecting interaction between HIV-I Tat and […] was similarly performed with the recombinant full-length HIV-I Tat CLADE B and HIV-I Tat Biotin conjugated proteins supplied by Diatheva (Fano, Italy). Briefly, the His-CBF and Biotin-RUNX1 complex at a working concentration of 83.3 nM per protein were pre-incubated in assay buffer for 10 minutes on ice. Then HIV-I Tat or unlabeled CBF were added to reach final concentrations (Supplementary Figure 4b) and incubated for 5 minutes. Finally anti-His antibody and streptavidin-XL665 at a final concentration of 2.2 ng and 5 nM, respectively, were added to the plate, which was incubated for 1 hr prior to reading on the PerkinElmer Envision plate reader.
# Keywords: MLSMR, MLPCN, NIH Roadmap, qHTS, NCGC, Core binding factor, CBF, CBF-beta, Acute myeloid leukemia
# On the % scale 0 is the no-effect control and ±100 the full control effect; potency means the concentration at half of the fitted maximal effect.
SMILES,"activity change, negative = inhibition",Potency
Cc1ccc(C(=O)CSc2nnc(-c3snnc3C)n2C2CC2)cc1,inactive: -10.2%,
Cc1cc(NS(=O)(=O)c2ccc(NC(=O)CSc3nc4ncc(Cl)cc4[nH]3)cc2)nc(C)n1,inactive: -3.67%,
COC(=O)c1sccc1S(=O)(=O)Nc1ccc(C)cc1,inactive: 6.18%,
Cc1ccncc1C(N)=O,inactive: -8.07%,
COc1ccc(OC)c(/C=N/NC(=O)c2cc3c(OC)cc(OC)cc3[nH]2)c1,inactive: -11.4%,
CN1CCN(C(=O)Nc2cccc(-c3ccccc3)c2)CC1,inactive: 6.34%,
CCN(CC)S(=O)(=O)c1cccc(NC2=NCCCCC2)c1,inactive: -3.88%,
CCOC(=O)/C(C#N)=C/Nc1ccccc1OC(F)(F)F,inactive: -8.6%,
Cc1ccc(NC(=S)N(C)C)cc1C,inactive: 6.41%,
Cc1c(-c2ccc(Br)cc2)[n+](=O)c2c(n1[O-])CCCCC2,inactive: 8.34%,
COc1cccc(C(=O)NNC2=C(C(=O)C(F)(F)F)CCC2)c1,inactive: 6.85%,
CCN(CC)c1ccc(/C=N/N2CCN(Cc3ccccc3Cl)CC2)c(O)c1,inactive: 3.34%,
O=C(O)C[C@@H]1C(=O)O[C@@H]2C(COC(=O)c3cc(O)c(O)c(O)c3)O[C@@H](OC(=O)c3cc(O)c(O)c(O)c3)[C@@H](OC(=O)c3cc(O)c(O)c4c3[C@H]1[C@H](O)C(=O)O4)[C@H]2OC(=O)c1cc(O)c(O)c(O)c1 (some centres not stated),,active: 89.1 nM
O=C(Nc1nnc(C2CC2)s1)c1cccnc1Oc1ccc(Cl)cc1,inactive: -9.76%,
Cn1c(=O)c([N+](=O)[O-])c(NCc2ccc3c(c2)OCO3)c2ccccc21,inactive: 20.7%,
CCOC(=O)N1CCc2c(sc(NC(=O)CN3CCOCC3)c2C#N)C1,inactive: -10%,
CCc1cccc(NC(=O)CCCCCC2NC(=O)NC2C)c1 (configuration not stated),,active: 56.2 nM
CCN(CC)C(=S)SCC(=O)Nc1ncc2c(n1)CCCC2=O,inactive: 3.58%,
Cc1ccc(S(=O)(=O)N2CCCCC2)cc1NC(=O)Cn1cnnn1,inactive: 0.33%,

# Another view of part of the listing above.
SMILES	activity change, negative = inhibition	Potency
Cc1cc(NS(=O)(=O)c2ccc(NC(=O)CSc3nc4ncc(Cl)cc4[nH]3)cc2)nc(C)n1	inactive: -3.67%	
COC(=O)c1sccc1S(=O)(=O)Nc1ccc(C)cc1	inactive: 6.18%	
Cc1ccncc1C(N)=O	inactive: -8.07%	
COc1ccc(OC)c(/C=N/NC(=O)c2cc3c(OC)cc(OC)cc3[nH]2)c1	inactive: -11.4%	
CN1CCN(C(=O)Nc2cccc(-c3ccccc3)c2)CC1	inactive: 6.34%	
CCN(CC)S(=O)(=O)c1cccc(NC2=NCCCCC2)c1	inactive: -3.88%	
CCOC(=O)/C(C#N)=C/Nc1ccccc1OC(F)(F)F	inactive: -8.6%	
Cc1ccc(NC(=S)N(C)C)cc1C	inactive: 6.41%	
Cc1c(-c2ccc(Br)cc2)[n+](=O)c2c(n1[O-])CCCCC2	inactive: 8.34%	
COc1cccc(C(=O)NNC2=C(C(=O)C(F)(F)F)CCC2)c1	inactive: 6.85%	

# Additional records:

SMILES,"activity change, negative = inhibition",Potency
O=c1[nH]nc(N/N=C/c2ccc(Cl)cc2Cl)c(=O)[nH]1,inactive: 28.6%,
O=C(NNC(=S)Nc1ccccc1C(F)(F)F)C1CC1,inactive: 1.1%,
CCCN(CCC)C(=O)CC(c1ccccc1)c1ccco1 (configuration not stated),inactive: -11.8%,
COc1ccc2[nH]c(C(=O)N3CCCN(Cc4ccc(F)cc4)CC3)cc2c1,inactive: 13.2%,
Cn1cnnc1SCc1ccccc1[N+](=O)[O-],inactive: 5.82%,
CCOC(=O)c1cn[nH]c1C(F)(F)F,inactive: -3.66%,
Cc1cc(C)c(C#N)c(SCCN2CCOCC2)n1,inactive: 11.6%,
O=C(CSc1n[nH]c(=O)[nH]c1=O)N1CCCCCC1,inactive: 14.5%,
O=C(CSc1nc(O)c(Cc2ccccc2)c(=O)[nH]1)c1ccccc1,inactive: 6.85%,
Nc1nccc(/C=C/c2ccc(Cl)cc2)n1,inactive: 4.36%,
Cn1cnc2c(N/N=C/c3cccs3)ncnc21,inactive: 23.8%,
CCN1CCN(c2nc3ccccn3c(=O)c2/C=C(\C#N)S(=O)(=O)c2ccccc2)CC1,inactive: 23.5%,
CCN(CC)c1ccc(/C=N/NC(=O)c2ccco2)c(O)c1,inactive: 35.9%,
Cc1ccc(Sc2ncccc2NC(=O)c2ccccc2Cl)cc1,inactive: 3.33%,
COc1ccccc1CC(=O)Nc1cccc(C(=O)Nc2nccs2)c1,inactive: -0.673%,
S=c1[nH]nc(-c2ccccc2Cl)n1/N=C/C=C/c1ccco1,inactive: -11.9%,
C=C1CC[C@H](O)C/C1=C/C=C1\CCC[C@]2(C)[C@H]1CC[C@H]2[C@@H](C)CCCC(C)C,inactive: 3.52% [at 82.4 µM],
Brc1csc2ncccc12,inactive: 2.37%,
CCOc1cc(C(=O)NCCc2ccc(S(N)(=O)=O)cc2)cc(OCC)c1OCC,inactive: 15.1%,

SMILES,"activity change, negative = inhibition",Potency
CC(C)Nc1cc(C(C)(C)C)nc2c(-c3ccccc3)cnn12,inactive: 4.12%,
C/C(=N\Nc1ccc(Cl)c(C(=O)O)c1)c1ccccn1,inactive: -8.44%,
CN(C(=O)Nc1ccc(Cl)cc1)n1cnc2ccccc2c1=O,inactive: -3.24%,
N#Cc1c(-c2ccccc2Cl)c2c([nH]c1=O)-c1ccccc1OC2,inactive: 25.6%,
Cc1ccc2[nH]cc(CCNC(=O)/C=C/c3ccco3)c2c1,inactive: 21.1%,
Cc1ccc(NC(=O)N2CCCn3c(SCC(=O)c4ccccc4)nnc32)cc1,inactive: -3.05%,
O=C1/C(=C/c2ccsc2)N2CCC1CC2,inactive: -6.79%,
CCOc1ccc(N2CSC(=S)N(c3ccc(OCC)cc3)C2)cc1,inactive: -4.28%,
COC(=O)c1cnc(NNS(=O)(=O)c2ccc(Cl)cc2)nc1C(F)(F)F,inactive: 5.71%,
CCOc1nsc(OCC)n1,inactive: 8.39%,
CCOC(=O)c1cc(-c2ccccc2)nc2ccc(C)cc12,inactive: 4.67%,
CNC(=O)C(=O)N/N=C/c1cccnc1,inactive: -5.48%,
CN(C)C(=S)Nc1ccc(Cl)cc1,inactive: -10.5%,
O=C(NC1CCN(C(=O)c2cccs2)CC1)c1ccccc1,inactive: 3.49%,
O=[N+]([O-])c1ccc2[nH]c(O)c(N=NC3CS(=O)(=O)CC3O)c2c1 (configuration not stated),inactive: 46.9%,
CCOc1cc(/C=N/n2c(C)nnc2C)ccc1O,inactive: -5.3%,
COc1ccc(CNc2nc3nc(C)c(Cl)c(C)n3n2)cc1,inactive: -2.9%,
O=C(c1ccccc1)C1C(c2ccccc2)C1[N+](=O)[O-] (configuration not stated),inactive: -5.25%,
Cc1cc([N+](=O)[O-])nn1CC(=O)N/N=C/c1ccccc1F,inactive: 11.7%,
